Assay results taken from PubChem BioAssay AID1625 (Sanford-Burnham Center for Chemical Genomics, 2009).
Out of some 190,000 compounds screened, about 570 (0.3%) were called active. The inconclusive results got no clear call from the source; some entries with a clear call stand among them for comparison.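 Rule for the calls: active = z-score above 3 at 5 µM with at least 500 cells counted in the well; inconclusive = wells under 500 cells, flagged as cytotoxic or low count; inactive = the rest.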

assay: up-regulation of insulin promoter-GFP reporter – imaging, high-content screening, mouse beta cells (AID 1625); settings: MIN6 insulin promoter-GFP reporter, at 5 µM, stronger effect = higher value

Structure (SMILES) | z-score
CS(=O)(=O)c1nc(-c2ccccc2)cc(C(F)(F)F)n1 | inconclusive: -1.45
Clc1ccc(-n2cc(-c3ccc(Br)cc3)[n+]3c2CCCCC3)cc1 | inconclusive: -3.64
CN1CCNC(=O)C1CC(=O)NCCC1=CCCCC1 (stereo unspecified) | active: 3.77
CN(c1ccccc1)c1ccc(/C=c2\s/c(=C(/C#N)C(=O)C(C)(C)C)n(Cc3ccco3)c2=O)cc1 | active: 12.8
Cc1ccc(-c2nn(-c3ccccc3)c3[nH]c(=O)c(CNCc4ccccc4)cc23)cc1 | inconclusive: -0.5
CC1CC(C)CN(S(=O)(=O)c2ccc(C(=O)NCCCn3ccnc3)cc2)C1 (stereo unspecified) | inconclusive: -2.82
COc1ccc(C(=O)Nc2ccc(S(=O)(=O)N3CCCCC3C)cc2)c(OC)c1OC (stereo unspecified) | inconclusive: -2.7
CC(C)(C)C1C/C(=C/c2ccccn2)C(=O)/C(=C/c2ccccn2)C1 (stereo unspecified) | inconclusive: -4.29
COc1cc([C@@H]2c3cc4c(cc3[C@@H](NC3CCN(Cc5ccccc5)CC3)[C@H]3COC(=O)[C@H]23)OCO4)cc(OC)c1O | inconclusive: -3.82
COc1ccc(-n2cc(-c3ccc(C)cc3)[n+]3c2SCC3)cc1 | inconclusive: -1.54
CCN1/C(=C\c2ccc3cc(C)ccc3[n+]2CC)Sc2cc(C)c(C)cc21 | inconclusive: 10.4
CC(Sc1ccc(Cl)cc1)C(=O)NCc1cccnc1 (stereo unspecified) | inconclusive: 0.26
CC(C)(C)NC(=O)NC(=O)COc1ccc(Br)cc1Br | inactive: -0.05
CCCCn1c2c(c(=N)c3ccccc31)CCC2 | inconclusive: -4.72
CC(C)Cn1c(N)c(C(=O)COC(=O)C2CCCCC2)c(=O)n(C)c1=O | inconclusive: -2.99
O=C1C2C3C=CC(CO)(O3)C2C(=O)N1c1ccccc1-c1ccccc1 (stereo unspecified) | inactive: 0.89
O=C(COc1ccc(Cl)cc1Cl)N1CCCC1 | inactive: 0.42
COc1cccc(/C=N/NC(=O)CCn2cnc3ccccc32)c1 | active: 3.74
Cc1cc(SCCOc2ccccc2)nc(N)n1 | active: 3.13

Structure (SMILES) | z-score
Cc1cc(-c2cccs2)c2c(N)c(C(=O)c3ccc4c(c3)OCO4)sc2n1 | active: 4.7
COC(=O)c1sc2cc([N+](=O)[O-])cc(SCC(C)C)c2c1N | inconclusive: 13.3
CCOc1ccc(C(=O)C(CCC(CN(C)C)C(=O)c2ccc(OCC)cc2)CN(C)C)cc1 (stereo unspecified) | inconclusive: -2.44
CCCCC1(Cc2ccc([N+](=O)[O-])cc2)C(=O)N(c2ccccc2)N(c2ccccc2)C1=O | inconclusive: -1.56
CCOc1cccc(/C=N/NC(=S)Nc2cc(S(=O)(=O)N3CCOCC3)ccc2N2CCOCC2)c1O | inconclusive: -0.55
OC(c1cc(-c2ccc(C(F)(F)F)cc2)nc(C(F)(F)F)c1)C1CCCCN1 (stereo unspecified) | inconclusive: -0.58
O=S(=O)(NC(=S)Nc1ccccc1)c1ccc(F)cc1 | inactive: -0.63
CCOC(=O)c1sc2ncc([N+](=O)[O-])cc2c1N | inactive: -0.11
COc1ccc(C(=O)C2CCCN(Cc3ccc4nonc4c3)C2)cc1OC (stereo unspecified) | inactive: -0.63
CCOC(=O)c1cc(C(=O)NCc2ccc(Cl)cc2Cl)nn1C | inconclusive: -2.44
O=C(CCS(=O)(=O)c1ccc(Br)cc1)Nc1cc(F)ccc1F | inconclusive: -5.16
COc1ccc(N(C(=O)Cc2cccs2)C2C=CS(=O)(=O)C2)cc1 (stereo unspecified) | active: 3.14
CCc1ccc2nc3sc(C(=O)N4CCc5ccccc54)c(N)c3cc2c1 | active: 4.93
Cc1nnc(N/N=C/c2cc([N+](=O)[O-])c(N3CCC(C)CC3)cc2N2CCC(C)CC2)n1N | inconclusive: -7.38
COc1ccc(S(=O)(=O)N(C)CC(=O)O)c2ccccc12 | inactive: -0.72
Cc1nn(-c2c(Cl)cc(Cl)cc2Cl)c(=O)c2ccccc12 | active: 3.38
CN1CCN(C2=C(Cl)C(=O)N(Cc3ccccc3)C2=O)CC1 | inactive: -0.61
COc1cc2c(cc1OC)-c1nncn1C(C)(C)C2 | active: 3.76
COc1ccc(CS(=O)/C(Cl)=C(/Cl)C(=O)Nc2ccc(OC)nc2)cc1 (stereo unspecified) | inconclusive: -2.84

A draw from above in order of SMILES length, smallest number first:
Structure (SMILES) | z-score
O=S(=O)(NC(=S)Nc1ccccc1)c1ccc(F)cc1 | inactive: -0.63
CCOC(=O)c1sc2ncc([N+](=O)[O-])cc2c1N | inactive: -0.11
CN1CCN(C2=C(Cl)C(=O)N(Cc3ccccc3)C2=O)CC1 | inactive: -0.61
COc1ccc(C(=O)C2CCCN(Cc3ccc4nonc4c3)C2)cc1OC (stereo unspecified) | inactive: -0.63
CCCCC1(Cc2ccc([N+](=O)[O-])cc2)C(=O)N(c2ccccc2)N(c2ccccc2)C1=O | inconclusive: -1.56

Continued.

Structure (SMILES) | z-score
COc1ccccc1N(CC(=O)NC1CCCC1)C(=O)c1oc(C(C)(C)C)cc1C | inactive: -0.49
CC(NC(=O)/C(C#N)=C1\N=C(NC(=O)c2cccs2)c2ccccc21)c1ccccc1 (stereo unspecified) | active: 3.96
O=c1c2ccccc2nc(N/N=C/c2c(O)ccc3ccccc23)n1O | inconclusive: -4.7
CCc1ccc(C(=O)CN2C(=O)NC(C)(CCc3ccccc3)C2=O)cc1 (stereo unspecified) | inactive: 0.26
COc1ccc(C(=O)C(CCC(CNC(C)(C)C)C(=O)c2ccc(OC)cc2)CNC(C)(C)C)cc1 (stereo unspecified) | inconclusive: -3.15
COc1ccc(CCNCc2csc3nc4ccccc4n23)cc1OC | inconclusive: -3.05
CN1/C(=C\C(=O)COC(=O)Cn2nnc(-c3ccccc3)n2)C(C)(C)c2ccccc21 | inconclusive: -3.52
Cc1ccc(Cn2c(SCC(C)C)nc3c2c(=O)[nH]c(=O)n3C)cc1 | inconclusive: -1.23
CC(O)CNc1nc2c(c(=O)n(C)c(=O)n2C)n1Cc1cccc(Br)c1 (stereo unspecified) | inconclusive: -0.76
CN(C)c1cc[n+](CC(=O)c2ccc(-c3ccccc3)cc2)cc1 | inconclusive: -6.13
C=CCn1c(SCCOc2ccc(OC)cc2)nnc1C(C)NC(=O)Cc1ccc(OC)cc1 (stereo unspecified) | active: 4.23
COc1ccc2c(c1)c1ccccc1n2C | inactive: -0.05
Cc1ccc(S(=O)(=O)Nc2ccc(Br)cc2/C=N/n2cnnc2)cc1 | inactive: 0.88
O=[N+]([O-])c1ccc(Sc2cccc[n+]2[O-])c2nonc12 | inconclusive: 0.99
CCC(C)(C)c1ccc(OCCCC[n+]2cccc(C)c2)c(C(C)(C)CC)c1 | inconclusive: -2.47
Cc1ccccc1Oc1cc(-n2ncc(Cl)c(Cl)c2=O)ncn1 | inconclusive: -1.57
COc1ccc(C(=O)/C(C#N)=N/Nc2ccc([N+](=O)[O-])cc2)cc1 | inactive: -2.12
CCc1cc2c(=O)[nH]c(-c3ccccn3)nc2s1 | inactive: -2.35
